Measured values: patent US20110171666A1 (priority 2007, published 2011)
No end group written: not given here.

Assay: peptide synthesis
Details: lipidation step

QTNDKHKRDTYSSQTNDMHKRDTYAAAAC
step yield: 23%
